Measurements taken from PubChem BioAssay AID1671190 (National Center for Advancing Translational Sciences (NCATS), 2021).
Where “and” joins values, the source holds several entries; their conditions need not be identical. Equal values may be shown once. Screen size: about 580,000 compounds; about 6,100 (1.1%) were called active. The shares of active, inactive and inconclusive entries below differ from those in the screen. Calls come from the whole dose curve; as a rule, active = well fitted inhibition curve with a large enough effect; inconclusive = small, poorly fitted or top-dose-only effect, or another doubt; inactive = no such curve, though single readings can be large or run the other way. Potencies beside an inconclusive call are fits to weak or partial responses and may not hold up.

Amino acid sequences for entries named in this document (tags omitted). A change or cut given only in a name is not applied to a line headed by its entry.
UniProt P18054: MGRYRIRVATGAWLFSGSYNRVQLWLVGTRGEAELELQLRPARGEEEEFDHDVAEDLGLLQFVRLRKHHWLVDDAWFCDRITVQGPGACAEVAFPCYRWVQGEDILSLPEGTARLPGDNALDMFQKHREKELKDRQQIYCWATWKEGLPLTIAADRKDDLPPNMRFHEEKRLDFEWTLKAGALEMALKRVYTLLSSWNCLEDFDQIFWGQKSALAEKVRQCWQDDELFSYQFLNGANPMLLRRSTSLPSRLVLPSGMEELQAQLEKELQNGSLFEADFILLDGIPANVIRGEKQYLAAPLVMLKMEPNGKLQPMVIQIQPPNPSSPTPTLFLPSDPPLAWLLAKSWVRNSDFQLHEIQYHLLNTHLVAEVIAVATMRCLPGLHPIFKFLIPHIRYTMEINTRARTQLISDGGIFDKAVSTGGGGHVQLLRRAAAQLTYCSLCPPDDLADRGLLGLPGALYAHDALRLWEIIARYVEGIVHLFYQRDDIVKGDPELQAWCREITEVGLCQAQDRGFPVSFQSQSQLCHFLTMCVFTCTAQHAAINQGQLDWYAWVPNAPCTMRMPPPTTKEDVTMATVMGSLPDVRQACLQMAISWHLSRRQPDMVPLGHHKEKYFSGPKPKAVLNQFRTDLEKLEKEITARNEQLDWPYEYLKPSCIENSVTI

molecular target: Polyunsaturated fatty acid lipoxygenase ALOX12 (Homo sapiens) (UniProt P18054); test: Primary qHTS assay for inhibitors of human arachidonate 12S-lipoxygenase (ALOX12): Round 2; details: purified 12hLO, xylenol orange hydroperoxide absorbance; activity change, negative = inhibition: at 108 µM (top of the series) unless noted
Summary of the method: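 Hydroperoxide product was detected by ferrous iron/xylenol orange as the 573 to 405 nm absorbance ratio. Arachidonic acid at 40 uM (final) was turned over for 30 min at room temperature by 150 nM human 12hLO, pH 7.0 Hepes buffer, after 15 min compound preincubation.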
% is set by controls: 0 for no effect and ±100 for the full control effect; potency is the fitted concentration of half-maximal effect.

Row | SMILES | activity change, negative = inhibition | Potency
1 | CC(C)Cn1nc(NC(=O)c2cccs2)c2cc3ccccc3nc21 | inactive: 74.6% | 
2 | Cc1ccc(SCC(=O)NCCSC(C)(C)C)cc1 |  | inconclusive: 56.2 µM [inhibitor, partial curve, poor fit]
3 | COc1ccc(C(=O)N2CCC3(CC2)NC(=O)N(Cc2ccc(Cl)cc2)C3=O)cc1 |  | inconclusive: 39.8 µM [inhibitor, partial curve]
4 | COC(=O)C1=C(C)N(C)C(=S)NC1c1ccc(C(C)C)cc1 (centres undefined) |  | inconclusive: 63.1 µM [inhibitor, partial curve, poor fit]
5 | CCN1C(=O)[C@H]2[C@H]3CN=C(SCc4ccccc4)N3[C@@](Cc3ccccc3)(C(=O)OC)[C@H]2C1=O |  | inconclusive: 20 µM [inhibitor, partial curve]
6 | O=C(NCc1ccccc1)C1=C[C@@H](c2ccc(Br)cc2)C[C@@H](OCCCCO)O1 |  | inconclusive: 39.8 µM [inhibitor, partial curve]
7 | CCOc1ccc(CNCCN2CCCC2)cc1 |  | inconclusive: 0.355 µM [inhibitor, full curve, poor fit]
8 | C/C(CC1(O)/C(=N/O)CCc2nonc21)=N\O (centres undefined) |  | inconclusive: 39.8 µM [inhibitor, partial curve, poor fit]
9 | CSc1nc(O)c(C(c2ccccc2)c2c(O)nc(SC)[nH]c2=O)c(=O)[nH]1 |  | inconclusive: 39.8 µM [inhibitor, partial curve, poor fit]
10 | CCOc1ccccc1CNC(=O)CCn1ccc(C)n1 |  | inconclusive: 44.7 µM [inhibitor, partial curve, poor fit]
11 | O=C(Nc1c(NC2CCCC2)c2ccccc2oc1=O)c1ccc(Cl)cc1 |  | inconclusive: 112 µM [inhibitor, single point]
12 | CCN(c1ccccc1)S(=O)(=O)c1ccc(C(=O)Nc2nnc(CSC)o2)cc1 | inactive: -6.6% | 
13 | O=C(Nc1nnc(CCN2CCCCC2)s1)c1cccc(Cl)c1 |  | inconclusive: 141 µM [inhibitor, single point]
14 | O=C(C=Cc1ccccc1)c1cccs1 | inactive: -10.3% | 
15 | Cc1nnc(SC(C)C(=O)NCC2CCCO2)n1-c1ccccc1 (centres undefined) | inconclusive: -34.7% [inhibitor] | 
16 | CC(C)=CCc1c(O)cc2c(=O)c3ccc(O)cc3oc2c1O |  | inconclusive: 56.2 µM [inhibitor, partial curve, poor fit]
17 | Cn1c(=O)[nH]c(=O)c2c1nc(Br)n2C/C=N/Nc1ccccc1 | inactive: -22.2% | 
18 | COc1ccc(-c2csc(NC(=O)CN3C(=O)CCC3=O)n2)c(OC)c1 | inactive: -20.2% | 
19 | O=S(=O)(NCc1ccc(Cn2cccn2)cc1)c1ccc(C(F)(F)F)cc1 |  | inconclusive: 50.1 µM [inhibitor, single point]
20 | C=CCNc1nc(C(=O)OCC(=O)NCc2cccc(Cl)c2)cs1 |  | inactive and inconclusive: 56.2 µM [inhibitor, partial curve, poor fit]
21 | Cc1ccc(S(=O)(=O)NCCNC(=O)c2cn(C)c3ccccc23)cc1 | inactive: 16.2% | 
22 | CCc1ccc(CCC(=O)Nc2ccc(C(C)=O)cc2)o1 |  | inconclusive: 50.1 µM [inhibitor, partial curve, poor fit]

Row | SMILES | activity change, negative = inhibition | Potency
23 | Fc1ccc(NCc2ccc(Br)cc2)c(F)c1 |  | inconclusive: 15.8 µM [inhibitor, full curve]
24 | O=C(c1ccccc1Cl)N1CCC2(CC1)NC(=O)N(Cc1ccc(F)cc1)C2=O |  | inconclusive: 15.8 µM [inhibitor, full curve]
25 | C[C@@H]1COC(=O)[C@H](NC(=O)OCC2c3ccccc3-c3ccccc32)C/C=C\C[C@@H](CC(=O)N[C@@H](CO)Cc2ccccc2)C(=O)N1 |  | inconclusive: 44.7 µM [inhibitor, partial curve, poor fit]
26 | O=[N+]([O-])c1ccc(N/N=C/c2c[nH]c3ccccc23)c(S(=O)(=O)Nc2ccccc2Cl)c1 |  | inconclusive: 5.01 µM [inhibitor, partial curve, poor fit]
27 | COc1cccc(CNC(=O)C2CCCN(S(=O)(=O)c3ccc4c(ccn4C)c3)C2)c1OC (centres undefined) |  | inconclusive: 126 µM [inhibitor, partial curve, poor fit]
28 | COc1ccc(N2CCN(C(=O)C3CCC(Cn4c(=S)[nH]c5ccccc5c4=O)CC3)CC2)cc1 (centres undefined) | inactive: -2.09% | 
29 | Oc1ccc(Cc2ccc(Cl)cc2)c(O)c1 |  | inconclusive: 79.4 µM [inhibitor, single point]
30 | O=C(Cc1ccccc1)Nc1ccc([C@@H](O)[C@H]2COCC(=O)N2CC2CC2)cc1 | inactive: 5.84% [at 176 µM] | 
31 | O=S(=O)(NCCc1csc2nc(-c3ccc(F)cc3)nn12)c1ccc2c(c1)OCCO2 | inactive: -29.6% | 
32 | COC(=O)C1=C(C)N(C)C(=NCc2cccc(C(F)(F)F)c2)NC1c1cccc(F)c1 (centres undefined) | inactive: 1.36% | 
33 | N#C/C(=C\c1ccc(OCc2ccc(C(=O)O)cc2)cc1)C(=O)NCc1ccccc1 |  | inconclusive: 44.7 µM [inhibitor, partial curve, poor fit]
34 | CC1Cc2cc(/C(O)=C3\C(=O)C(=O)N(CCN4CCOCC4)C3c3ccccc3F)ccc2O1 (centres undefined) |  | inconclusive: 3.16 µM [inhibitor, full curve, poor fit]
35 | Cc1ccc(C)c(OCC(=O)Nc2cc(C(=O)O)cc(C(=O)O)c2)c1 |  | inconclusive: 70.8 µM [inhibitor, single point]
36 | Cc1cccc(OCC(=O)Nc2ccc(CN3CCOCC3)cc2)c1C |  | inconclusive: 126 µM [inhibitor, single point]
37 | CN1CCCCCC(O)c2cc(C(=O)NC3CCN(Cc4ccccc4)CC3)ccc21 (centres undefined) |  | inconclusive: 12.6 µM [inhibitor, full curve]
38 | Cc1onc(-c2ccccc2Cl)c1C(=O)NCc1cccnc1 | inactive: -26.9% | 
39 | CN(Cc1ccccc1)C(=O)Cn1c2c(c(=O)n1Cc1ccccc1)CCN(Cc1ccccc1)C2 | inactive: 6.3% | 
40 | CCCOc1ccc(-c2nc(SCc3ccccc3)[nH]c(=O)c2C#N)cc1OC |  | inconclusive: 22.4 µM [inhibitor, partial curve, poor fit]
41 | Cc1ccc(NC(=O)NC2CCCCCCC2)c(C)c1 |  | inconclusive: 70.8 µM [inhibitor, partial curve, poor fit]
42 | CC(C)[C@H](NC(=O)C1CCN(S(=O)(=O)c2ccc(F)cc2)CC1)C(=O)NCc1ccco1 | inactive: 2.16% | 
43 | CCOc1nc(N=C(N)N)nc2c(C)cccc12 | inactive: 0% | 
44 | CCOC(=O)c1c(NC(=S)N2CCOCC2)sc2c1CCN(C(=O)OCC)C2 |  | inconclusive: 25.1 µM [inhibitor, partial curve, poor fit]

In another format: entries from further up

| Row | SMILES | activity change, negative = inhibition | Potency |
| --- | --- | --- | --- |
| 22 | CCc1ccc(CCC(=O)Nc2ccc(C(C)=O)cc2)o1 |  | inconclusive: 50.1 µM [inhibitor, partial curve, poor fit] |
| 23 | Fc1ccc(NCc2ccc(Br)cc2)c(F)c1 |  | inconclusive: 15.8 µM [inhibitor, full curve] |

(further entries)

Row | SMILES | activity change, negative = inhibition | Potency
45 | Cc1cc(=O)[nH]c(N/N=C/CCc2ccccc2)n1 |  | inconclusive: 50.1 µM [inhibitor, partial curve, poor fit]
46 | COc1cc2c(cc1NC(=O)C(Cl)Cl)-c1ccc(NC(=O)C(Cl)Cl)cc1C2 |  | inconclusive: 39.8 µM [inhibitor, partial curve, poor fit]
47 | COCCC(=O)N1C[C@@H](Oc2ccccc2)C[C@@H]1C(=O)N1CCOCC1 | inactive: 35.5% | 
48 | OC(c1ccccc1)(c1ccccc1)C1CCN(CCCOc2ccccn2)CC1 |  | inconclusive: 14.1 µM [inhibitor, partial curve, poor fit]
49 | CC(C)=CC(=O)Nc1ccc(S(=O)(=O)Nc2onc(C)c2C)cc1 |  | inconclusive: 44.7 µM [inhibitor, partial curve, poor fit]
50 | Cc1cccc(N2C(=O)C(CC(=O)Nc3ccccc3)N(C3CCCCC3)C2=O)c1 (centres undefined) |  | inconclusive: 100 µM [inhibitor, partial curve, poor fit]
51 | O=C1Nc2cc(C(=O)NCCN3CCCCCC3)ccc2S/C1=C\c1ccccc1 |  | inconclusive: 50.1 µM [inhibitor, partial curve, poor fit]
52 | CCCN=Cc1sc2ccc(OCC)cc2c1O |  | inconclusive: 10 µM [inhibitor, full curve, poor fit]
53 | CCC(C)[C@H](NC(=O)NCc1ccco1)C(=O)O (some centres undefined) |  | inconclusive: 35.5 µM [inhibitor, partial curve, poor fit]
54 | Cn1c(=O)c2[nH]c(Br)nc2n(C)c1=O |  | inconclusive: 35.5 µM [inhibitor, partial curve, poor fit]
55 | Cc1nc(N2CCC(NC(=O)C(C)c3ccccc3)CC2)cc(C(F)(F)F)n1 (centres undefined) | inactive: 19.3% | 
56 | CNC(=O)CCn1ncc2cc(OC3CCc4cccc(-c5ccccc5)c43)ccc21 (centres undefined) |  | inconclusive: 100 µM [inhibitor, partial curve]
57 | COc1ccc(O)c(CN2CCC3(CC2)c2ccccc2[C@@H](NC(=O)c2cccc(F)c2)[C@@H]3OC)c1 |  | inconclusive: 141 µM [inhibitor, single point]
58 | CCOC(=O)c1c(C)[nH]c(C)c1S(=O)(=O)N(C)CC(=O)N1CCN(c2cccc(C)c2C)CC1 |  | inconclusive: 158 µM [inhibitor, partial curve, poor fit]
59 | CC(C)(C)c1cc(CN(CCO)CCO)c(O)c(C(C)(C)C)c1 |  | inconclusive: 25.1 µM [inhibitor, partial curve, poor fit]
60 | O=[N+]([O-])c1ccc2c(c1)C(N1CCN(CCO)CC1)Cc1ccc(F)cc1S2 (centres undefined) | inactive: -18.3% | 
61 | Cc1cccc(-c2nn3c(N(C)C)cc(C)nc3c2C)c1 | inactive: -13.5% | 
62 | CCC(C)(C(=O)NC1CCCC1)N(C)C(=O)c1ccccn1 (centres undefined) |  | inconclusive: 0.447 µM [inhibitor, full curve, poor fit]
63 | N#Cc1nc(COc2ccc(Br)cc2)oc1NCc1cccnc1 |  | inconclusive: 39.8 µM [inhibitor, partial curve, poor fit]
64 | O=C(CSc1nc(-c2ccc(Cl)cc2)[nH]c(=O)n1)Nc1cccc(Cl)c1 |  | inconclusive: 39.8 µM [inhibitor, partial curve, poor fit]

Single records (already shown):
`COc1cc2c(cc1NC(=O)C(Cl)Cl)-c1ccc(NC(=O)C(Cl)Cl)cc1C2` is listed with Potency: inconclusive: 39.8 µM [inhibitor, partial curve, poor fit]
`Cc1nc(N2CCC(NC(=O)C(C)c3ccccc3)CC2)cc(C(F)(F)F)n1` (centres undefined) is listed with activity change, negative = inhibition: inactive: 19.3%
